PubChem BioAssay AID1508597 – Cure First – 2020
Aim: 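Survival screen with siRNA in ovarian cancer cells derived from patients, with or without rucaparib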 (primary screen). Cells: human ovarian carcinoma lines grown from tumours: OCI-P5x (papillary serous) and OCI-C5x (clear cell). Reagents: siRNA pool against human genes, 1.25 pmol siRNA per well. Timing: 72 h or 96 h, depending on the cell culture. Conditions: rucaparib 20 µM (about IC30) or vehicle, present until read-out. Rucaparib or vehicle: Rucaparib. Cell line: OCI-C5x (clear cell). Measured: 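Luminescent ATP-based viability assay read 72 or 96 h after transfection, depending on culture, given as normalised percent viability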. Direction: viability, normalised: higher = more viable cells remaining. Active means: 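a well counts as a hit if its normalised viability is under 80 percent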. Meaning of the calls: active = viability under 80%; inactive = viability 80% or more.
This is a random part of the about 2,100 reagents, under one of the conditions tested. 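Calls flag viability under 80% in either arm, not effects specific to rucaparib; the reference for percent is not stated.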 Not stated in the record: the 100% reference.

target gene,technical replicate,"viability, normalised (%)",outcome
BAZ2A,1,28.2,active
BAZ2A,2,18.8,active
BAZ2A,3,13.3,active
ZNF451,1,48.8,active
ZNF451,2,55,active
ZNF451,3,40.7,active
NEK5,1,56.2,active
NEK5,2,61.3,active
NEK5,3,64,active
ZNF384,1,56.5,active
ZNF384,2,56.2,active
ZNF384,3,48.6,active
PTK7,1,47.1,active
PTK7,2,36.1,active
PTK7,3,46.3,active

The list goes on, starting with the last 2 of the part before.
target gene,technical replicate,"viability, normalised (%)",outcome
PTK7,2,36.1,active
PTK7,3,46.3,active
HK3,1,76.9,active
HK3,2,81.6,inactive
HK3,3,56.9,active
MLKL,1,54.6,active
MLKL,2,79.6,active
MLKL,3,75.4,active
DHX15,1,66.1,active
DHX15,2,46.5,active
DHX15,3,53.1,active
